Drawing on article PMC11626157, this text covers binding for 1 substance.

By UniProt entry, the sequences of proteins in these tests, tags left out.
UniProt P0AES4: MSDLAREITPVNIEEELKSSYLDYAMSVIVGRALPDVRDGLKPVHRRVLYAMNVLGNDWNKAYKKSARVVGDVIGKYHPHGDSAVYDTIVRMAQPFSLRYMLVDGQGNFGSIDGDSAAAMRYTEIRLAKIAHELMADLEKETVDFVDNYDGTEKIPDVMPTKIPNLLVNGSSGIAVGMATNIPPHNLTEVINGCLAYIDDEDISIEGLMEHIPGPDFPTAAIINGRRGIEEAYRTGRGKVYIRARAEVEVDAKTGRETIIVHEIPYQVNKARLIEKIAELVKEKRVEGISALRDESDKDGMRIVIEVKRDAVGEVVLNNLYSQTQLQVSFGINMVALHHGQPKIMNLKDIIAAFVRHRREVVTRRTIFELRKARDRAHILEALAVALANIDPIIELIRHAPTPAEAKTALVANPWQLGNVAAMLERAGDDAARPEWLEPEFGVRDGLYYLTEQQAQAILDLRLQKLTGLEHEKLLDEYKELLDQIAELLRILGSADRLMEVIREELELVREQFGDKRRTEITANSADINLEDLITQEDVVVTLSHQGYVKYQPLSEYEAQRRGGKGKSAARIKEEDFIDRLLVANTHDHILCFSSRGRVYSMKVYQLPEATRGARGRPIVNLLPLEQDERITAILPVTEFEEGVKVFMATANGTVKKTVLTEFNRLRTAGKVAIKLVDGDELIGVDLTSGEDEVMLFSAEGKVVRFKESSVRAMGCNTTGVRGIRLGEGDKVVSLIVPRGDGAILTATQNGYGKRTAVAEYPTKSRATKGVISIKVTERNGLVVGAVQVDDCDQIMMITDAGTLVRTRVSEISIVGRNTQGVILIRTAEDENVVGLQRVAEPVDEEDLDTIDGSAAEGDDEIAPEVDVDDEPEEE

In assay [1] the target is Escherichia coli DNA gyrase subunit A (GyrA) (Escherichia coli) (UniProt P0AES4). The assay is described as follows: cryo-EM structure; Gyr-Mu217-MFX: as Gyr-Mu217 but with moxifloxacin (50 µM in the dialysis buffer, then 100 µM, 37 °C for 15 min); DNA cleaved; both purified.
For assay [2] the target is unchanged. The assay is described as follows: cryo-EM structure; Gyr-Mu217: GyrA and GyrB with equimolar 217 bp Mu217 DNA, no nucleotide, no drug; dialysed at 4 °C into 25 mM Na-HEPES pH 8, 30 mM potassium acetate, 2.5 mM magnesium acetate, 0.5 mM TCEP; 8 mM CHAPSO added before freezing; both purified.

These are yes or no findings as the source states them, for the method shown. Some results given as binding are weak or reduced against the parent protein; the word gives no strength.

Turning to “Escherichia coli DNA gyrase subunit A (GyrA) (from UniProt P0AES4 1-875) (enzyme; other documents disagree on this pair)”, the binding entry in assay [1] and in assay [2] was “binds” each time.
